± gives the standard deviation of the averaged measurements. Small differences around the control level are noise.
Legend:
Test in all cases: level (log10 ratio to DMSO vehicle control); higher = higher biomarker level / cell amount than vehicle control
[1] = compound: C=C(C)C(=O)OCCC(F)(F)C(F)(F)C(F)(F)C(F)(F)C(F)(F)C(F)(F)C(F)(F)C(F)(F)F [8:2 Fluorotelomer methacrylate]; conditions: in DMSO
Method: (§1)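 BioMAP Diversity Plus panel of 12 human primary cell co-culture systems (3C, 4H, LPS, SAg, BT, BF4T, BE3C, CASM3C, HDF3CGF, KF3CT, MyoF, Mphg). Compounds were added 1 h before stimulation and left for 24 h (MyoF 48 h; BT 72 h for soluble read-outs or 6 d for IgG). Biomarkers were read by ELISA, cytotoxicity by SRB, PBMC viability and proliferation by Alamar Blue. Each well value was divided by the mean of 8 DMSO control wells on the same plate and log10 transformed; duplicate blinded samples were tested at 4 concentrations.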

Tetrafluorosuccinic acid = compound: O=C(O)C(F)(F)C(F)(F)C(=O)O [Tetrafluorosuccinic acid]; conditions: 2200 nM; in DMSO
Method: as §1

[2] = compound: O=C(O)C(F)(F)C(F)(F)C(F)(F)C(F)(F)C(F)(F)C(F)(F)C(F)(F)C(F)(F)Cl [9-Chloro-perfluorononanoic acid]; conditions: in DMSO
Method: as §1

[3] = compound: O=S(=O)(O)C(F)(F)C(F)(F)OC(F)(F)C(F)(F)F [Perfluoro(2-ethoxyethane)sulfonic acid]; conditions: 2200 nM; in DMSO
Method: as §1

[4] = compound: O=S(=O)(O)CCC(F)(F)C(F)(F)C(F)(F)C(F)(F)C(F)(F)C(F)(F)F [6:2 Fluorotelomer sulfonic acid]; conditions: in DMSO
Method: as §1

[5] = compound: C=C(C)C(=O)OCCC(F)(F)C(F)(F)C(F)(F)C(F)(F)C(F)(C(F)(F)F)C(F)(F)F [(Perfluoro-5-methylhexyl)ethyl 2-methylprop-2-enoate]; conditions: in DMSO
Method: as §1

Nonafluoropentanamide = compound: NC(=O)C(F)(F)C(F)(F)C(F)(F)C(F)(F)F [Nonafluoropentanamide]; conditions: 2200 nM; in DMSO
Method: as §1

[6] = compound: O=C(O)CCC(F)(F)C(F)(F)C(F)(F)C(F)(F)C(F)(F)F [2H,2H,3H,3H-Perfluorooctanoic acid]; conditions: 2200 nM; in DMSO
Method: as §1

[7] = compound: FC(F)(F)C(F)(F)C(F)(F)C(F)(F)C(F)(F)CCI [1-Iodo-1H,1H,2H,2H-perfluoroheptane]; conditions: 2200 nM; in DMSO
Method: as §1

[8] = compound: COC(=O)CCC(F)(F)C(F)(F)C(F)(F)C(F)(F)F [Methyl 2H,2H,3H,3H-perfluoroheptanoate]; conditions: 2200 nM; in DMSO
Method: as §1

Octafluoroadipamide = compound: NC(=O)C(F)(F)C(F)(F)C(F)(F)C(F)(F)C(N)=O [Octafluoroadipamide]; conditions: 2200 nM; in DMSO
Method: as §1

Perfluoropinacol = compound: OC(C(F)(F)F)(C(F)(F)F)C(O)(C(F)(F)F)C(F)(F)F [Perfluoropinacol]; conditions: in DMSO
Method: as §1

[9] = compound: OCCC(F)(F)C(F)(F)C(F)(F)C(F)(F)F [4:2 Fluorotelomer alcohol]; conditions: 2200 nM; in DMSO
Method: as §1

[10] = compound: NS(=O)(=O)C(F)(F)C(F)(F)C(F)(F)C(F)(F)C(F)(F)C(F)(F)F [Perfluorohexanesulfonamide]; conditions: 2200 nM; in DMSO
Method: as §1

Test System | level (log10) ([1]; 740 nM) | level (log10) ([1]; 2200 nM) | level (log10) (Tetrafluorosuccinic acid) | level (log10) ([2]; 2200 nM) | level (log10) ([2]; 6700 nM) | level (log10) ([2]; 20000 nM) | level (log10) [3] | level (log10) ([4]; 2200 nM) | level (log10) ([4]; 6700 nM) | level (log10) ([4]; 20000 nM) | level (log10) ([4]; 60000 nM) | level (log10) ([5]; 740 nM) | level (log10) ([5]; 2200 nM) | level (log10) ([5]; 6700 nM) | level (log10) ([5]; 20000 nM) | level (log10) (Nonafluoropentanamide) | level (log10) [6] | level (log10) [7] | level (log10) [8] | level (log10) (Octafluoroadipamide) | level (log10) (Perfluoropinacol; 2200 nM) | level (log10) (Perfluoropinacol; 6700 nM) | level (log10) (Perfluoropinacol; 20000 nM) | level (log10) [9] | level (log10) [10]
BE3C:CD54/ICAM-1 | -0.0105 ± 0.0078 | -0.007 ± 0.0057 | 0.0105 ± 0.036 | -0.017 ± 0.0014 | 0.0145 ± 0.018 | -0.033 ± 0.014 | 0.0015 ± 0.0092 | -0.019 ± 0.013 | -0.006 ± 0.0085 | -0.0145 ± 0.005 | -0.04 ± 0.023 | -0.003 ± 0.027 | -0.001 ± 0.0028 | -0.0075 ± 0.0021 | 0.005 ± 0.0042 | 0.0075 ± 0.0021 | -0.0175 ± 0.0035 | 0.01 ± 0.0057 | 0.01 ± 0.0057 | 0.0095 ± 0.036 | 0.0105 ± 0.012 | -0.003 ± 0.0085 | -0.0095 ± 0.0035 | 0.03 ± 0.025 | 0.0025 ± 0.039
BE3C:CXCL10/IP-10 | 0.0055 ± 0.026 | 0.018 ± 0.02 | -0.011 ± 0.0028 | -0.0205 ± 0.011 | -0.0545 ± 0.015 | -0.462 ± 0.011 | -0.011 ± 0.0057 | -0.006 ± 0.0028 | 0.0015 ± 0.0021 | -0.0095 ± 0.0078 | -0.0125 ± 0.018 | 0.029 | 0.041 ± 0.02 | 0.032 ± 0.031 | 0.022 ± 0.021 | 0.0125 ± 0.019 | -0.0095 ± 0.012 | 0.0195 ± 0.054 | -0.006 ± 0.0057 | -0.011 ± 0.025 | -0.006 ± 0.0028 | -0.0315 ± 0.0035 | -0.118 ± 0.0071 | -0.013 ± 0.016 | 0.0065 ± 0.046
CASM3C:CD87/uPAR | 0.0235 ± 0.005 | 0.0245 ± 0.037 | -0.0025 ± 0.015 | -0.0195 ± 0.0064 | -0.002 | 0.02 ± 0.0071 | 0.006 ± 0.0085 | -0.002 ± 0.023 | 0.003 ± 0.035 | 0.0145 ± 0.019 | -0.0125 ± 0.012 | -0.026 ± 0.023 | -0.046 ± 0.018 | -0.0305 ± 0.013 | -0.035 | -0.015 ± 0.044 | -0.0155 ± 0.033 | 0.008 ± 0.023 | -0.0245 ± 0.019 | -0.0245 ± 0.047 | -0.019 ± 0.05 | -0.0245 ± 0.015 | -0.107 ± 0.018 | 0.003 ± 0.0057 | -0.0005 ± 0.0021
BT:Secreted IgG | -0.0025 ± 0.019 | 0.0015 ± 0.018 | -0.003 ± 0.031 | -0.0055 ± 0.054 | 0.0065 ± 0.06 | 0.0175 ± 0.011 | 0.0245 ± 0.032 | 0.0065 ± 0.0092 | 0.0005 ± 0.054 | -0.048 ± 0.031 | -0.081 ± 0.048 | -0.026 ± 0.034 | -0.019 ± 0.0042 | -0.0085 ± 0.044 | -0.023 ± 0.0085 | 0.0055 ± 0.022 | 0.0575 ± 0.022 | -0.001 ± 0.031 | 0.0465 ± 0.0021 | 0.023 ± 0.037 | 0.0105 ± 0.0078 | -0.322 ± 0.02 | -1.36 | 0.024 ± 0.014 | -0.024 ± 0.016
CASM3C:CCL2/MCP-1 | 0.0045 ± 0.039 | -0.009 ± 0.011 | 0.012 ± 0.021 | 0.019 ± 0.047 | -0.0085 ± 0.011 | -0.011 ± 0.0028 | 0.022 ± 0.038 | 0.02 ± 0.033 | -0.0125 ± 0.011 | -0.01 | 0.0225 ± 0.032 | 0.0025 ± 0.015 | 0.0025 ± 0.00071 | 0.002 ± 0.023 | 0.0105 ± 0.005 | 0.0105 ± 0.0078 | 0.0245 ± 0.033 | -0.0035 ± 0.028 | 0.0035 ± 0.023 | 0.009 ± 0.059 | -0.007 ± 0.073 | 0.0185 ± 0.013 | 0.096 ± 0.017 | 0.0005 ± 0.032 | -0.003 ± 0.023
BT:sIL-17F | -0.0095 ± 0.037 | 0.089 ± 0.057 | -0.048 ± 0.014 | -0.034 ± 0.062 | -0.0055 ± 0.074 | 0.011 ± 0.024 | 0.0025 ± 0.066 | 0 ± 0.023 | 0.0005 ± 0.064 | 0.0725 ± 0.012 | 0.0155 ± 0.011 | -0.081 ± 0.18 | 0.004 ± 0.0042 | 0.004 ± 0.15 | -0.0015 ± 0.0092 | 0.0135 ± 0.12 | 0 ± 0.064 | -0.0285 ± 0.12 | 0.0315 ± 0.026 | 0.0715 ± 0.16 | -0.0755 ± 0.1 | -0.063 ± 0.028 | -0.23 ± 0.033 | 0.052 ± 0.14 | -0.021 ± 0.079
HDF3CGF:M-CSF | -0.0095 ± 0.005 | -0.007 ± 0.027 | 0.015 ± 0.04 | -0.0435 ± 0.06 | -0.058 ± 0.041 | -0.089 ± 0.025 | -0.021 ± 0.031 | -0.0495 ± 0.0035 | -0.0255 ± 0.073 | -0.044 ± 0.068 | -0.082 ± 0.085 | -0.011 | -0.013 ± 0.0085 | -0.0175 ± 0.0078 | -0.0175 ± 0.0035 | 0.0045 ± 0.011 | -0.0665 ± 0.1 | -0.004 ± 0.0071 | 0.0085 ± 0.042 | 0.009 ± 0.017 | -0.0325 ± 0.08 | -0.024 ± 0.055 | -0.239 ± 0.049 | -0.008 ± 0.071 | 0.0375 ± 0.00071
SAg:Proliferation | 0.0015 ± 0.013 | 0.003 ± 0.04 | -0.033 ± 0.083 | -0.052 ± 0.021 | -0.036 ± 0.033 | 0.02 ± 0.02 | -0.002 ± 0.033 | -0.037 ± 0.05 | -0.019 ± 0.027 | -0.0255 ± 0.023 | -0.0225 ± 0.0035 | 0.0315 ± 0.043 | 0.05 ± 0.0085 | 0.011 ± 0.0085 | 0.009 ± 0.018 | 0.0575 ± 0.025 | -0.026 ± 0.061 | -0.013 ± 0.068 | 0.0235 ± 0.011 | 0.001 ± 0.0099 | 0.02 ± 0.0014 | 0.0035 ± 0.093 | -0.163 ± 0.021 | -0.0035 ± 0.016 | -0.0055 ± 0.086
CASM3C:Proliferation | 0.025 ± 0.033 | -0.018 ± 0.018 | -0.0225 ± 0.12 | 0.0005 ± 0.025 | -0.016 ± 0.02 | 0.004 ± 0.025 | 0.0055 ± 0.018 | 0 ± 0.085 | -0.0095 ± 0.029 | 0.024 ± 0.033 | 0.026 ± 0.018 | -0.025 ± 0.0014 | -0.0105 ± 0.035 | -0.036 ± 0.0014 | -0.054 ± 0.071 | -0.0275 ± 0.005 | 0.01 ± 0.034 | -0.011 ± 0.061 | -0.0285 ± 0.019 | -0.068 ± 0.057 | 0.002 ± 0.023 | -0.02 ± 0.013 | -0.122 ± 0.035 | 0.0025 ± 0.026 | -0.0255 ± 0.025
3C:CXCL9/MIG | 0.0015 ± 0.005 | -0.0005 ± 0.0078 | -0.0155 ± 0.0078 | 0.007 | -0.005 ± 0.0042 | 0.0065 ± 0.0078 | -0.002 ± 0.0085 | -0.002 ± 0.014 | -0.0065 ± 0.0021 | -0.009 ± 0.017 | -0.006 ± 0.0042 | 0.006 ± 0.0028 | -0.007 ± 0.013 | -0.001 ± 0.011 | 0.0045 ± 0.0035 | 0.002 ± 0.0085 | 0.0005 ± 0.0092 | -0.004 ± 0.0085 | -0.011 ± 0.0099 | -0.0015 ± 0.015 | 0.0015 ± 0.0035 | -0.005 ± 0.013 | -0.014 ± 0.0085 | 0.001 ± 0.013 | -0.0135 ± 0.0078

From the supplement of paper PMC10331698
